Data as given in article PMC5386674.
Results are given in words; binding and its absence hold for the method and conditions named. Binding seen in cells or lysates may run through a third protein. Some entries that bind do so weakly or less than the wild type.

Amino acid sequences for entries named in this document (tags omitted).
UniProt P84022: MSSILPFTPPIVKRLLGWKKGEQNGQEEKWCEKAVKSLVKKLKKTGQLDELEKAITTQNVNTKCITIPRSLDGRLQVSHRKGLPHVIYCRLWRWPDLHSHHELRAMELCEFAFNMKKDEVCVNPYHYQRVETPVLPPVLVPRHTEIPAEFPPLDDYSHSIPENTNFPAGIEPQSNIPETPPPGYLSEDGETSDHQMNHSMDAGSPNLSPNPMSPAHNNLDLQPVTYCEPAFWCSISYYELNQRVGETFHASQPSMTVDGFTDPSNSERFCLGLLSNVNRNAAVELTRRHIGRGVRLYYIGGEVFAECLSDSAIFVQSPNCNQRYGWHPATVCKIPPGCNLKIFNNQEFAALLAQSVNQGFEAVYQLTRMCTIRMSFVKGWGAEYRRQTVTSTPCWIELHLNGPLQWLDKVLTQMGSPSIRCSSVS

Experiments:
[1] = molecular target: T1, Hyal-2 (hyaluronidase 2), endogenous human (human (endogenous in THP-1, U937, SK-N-SH, Jurkat, MCF7)) (UniProt Q12891); assay: co-IP; MCF7 cells treated with hyaluronidase PH-20 for 1 hr or hyaluronidase-degraded HA; precipitating antibody not stated
T1 sequence: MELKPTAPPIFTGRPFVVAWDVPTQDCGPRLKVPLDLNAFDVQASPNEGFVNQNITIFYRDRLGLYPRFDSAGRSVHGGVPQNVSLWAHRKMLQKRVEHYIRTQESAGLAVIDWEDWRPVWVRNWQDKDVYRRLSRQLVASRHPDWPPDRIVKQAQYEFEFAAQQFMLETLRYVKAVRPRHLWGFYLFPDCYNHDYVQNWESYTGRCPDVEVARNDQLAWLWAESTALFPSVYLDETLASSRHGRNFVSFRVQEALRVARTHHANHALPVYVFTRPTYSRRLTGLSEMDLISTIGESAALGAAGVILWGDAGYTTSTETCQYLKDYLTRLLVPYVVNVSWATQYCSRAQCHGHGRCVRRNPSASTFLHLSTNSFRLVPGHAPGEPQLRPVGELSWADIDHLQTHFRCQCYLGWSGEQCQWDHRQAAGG

[2] = molecular target: T1, Hyal-2 (hyaluronidase 2), endogenous human (human (endogenous in THP-1, U937, SK-N-SH, Jurkat, MCF7)); assay: co-IP; immunoprecipitation with Hyal-2 antibody; cytosolic fraction of SK-N-SH cells and EGFP-expressing COS7 cells, resting or treated with HA (25 μg/ml, 30 min); COS7 also with ectopic EGFP-dn-WW
[3] = molecular target: Smad3, endogenous human (human (endogenous in SK-N-SH)) (UniProt P84022); assay: co-IP; immunoprecipitation with Smad3 antibody; SK-N-SH cells, resting or treated with HA (25 μg/ml, 30 min)

binding [1]: binds
binding [2]: binds
binding [3]: binds
B1: WWOX (WW domain-containing oxidoreductase), endogenous human (protein, UniProt Q9NZC7 1-414)
chain: MAALRYAGLDDTDSEDELPPGWEERTTKDGWVYYANHTEEKTQWEHPKTGKRKRVAGDLPYGWEQETDENGQVFFVDHINKRTTYLDPRLAFTVDDNPTKPTTRQRYDGSTTAMEILQGRDFTGKVVVVTGANSGIGFETAKSFALHGAHVILACRNMARASEAVSRILEEWHKAKVEAMTLDLALLRSVQHFAEAFKAKNVPLHVLVCNAATFALPWSLTKDGLETTFQVNHLGHFYLVQLLQDVLCRSAPARVIVVSSESHRFTDINDSLGKLDFSRLSPTKNDYWAMLAYNRSKLCNILFSNELHRRLSPRGVTSNAVHPGNMMYSNIHRSWWVYTLLFTLARPFTKSMQQGAATTVYCAAVPELEGLGGMYFNNCCRCMPSPEAQSEETARTLWALSERLIQERLGSQSG
